The text below walks through data of the supplement of paper PMC12819154, “High-throughput peptide-centric local stability assay extends protein–ligand identification to membrane proteins, tissues and bacteria” (Nature Structural & Molecular Biology, 2025).

Chains of the proteins cited; added tags and fusions are not shown. Lines headed by an entry give the natural chain unless they say otherwise; changes in a name come on top.
UniProt P97479, whole entry: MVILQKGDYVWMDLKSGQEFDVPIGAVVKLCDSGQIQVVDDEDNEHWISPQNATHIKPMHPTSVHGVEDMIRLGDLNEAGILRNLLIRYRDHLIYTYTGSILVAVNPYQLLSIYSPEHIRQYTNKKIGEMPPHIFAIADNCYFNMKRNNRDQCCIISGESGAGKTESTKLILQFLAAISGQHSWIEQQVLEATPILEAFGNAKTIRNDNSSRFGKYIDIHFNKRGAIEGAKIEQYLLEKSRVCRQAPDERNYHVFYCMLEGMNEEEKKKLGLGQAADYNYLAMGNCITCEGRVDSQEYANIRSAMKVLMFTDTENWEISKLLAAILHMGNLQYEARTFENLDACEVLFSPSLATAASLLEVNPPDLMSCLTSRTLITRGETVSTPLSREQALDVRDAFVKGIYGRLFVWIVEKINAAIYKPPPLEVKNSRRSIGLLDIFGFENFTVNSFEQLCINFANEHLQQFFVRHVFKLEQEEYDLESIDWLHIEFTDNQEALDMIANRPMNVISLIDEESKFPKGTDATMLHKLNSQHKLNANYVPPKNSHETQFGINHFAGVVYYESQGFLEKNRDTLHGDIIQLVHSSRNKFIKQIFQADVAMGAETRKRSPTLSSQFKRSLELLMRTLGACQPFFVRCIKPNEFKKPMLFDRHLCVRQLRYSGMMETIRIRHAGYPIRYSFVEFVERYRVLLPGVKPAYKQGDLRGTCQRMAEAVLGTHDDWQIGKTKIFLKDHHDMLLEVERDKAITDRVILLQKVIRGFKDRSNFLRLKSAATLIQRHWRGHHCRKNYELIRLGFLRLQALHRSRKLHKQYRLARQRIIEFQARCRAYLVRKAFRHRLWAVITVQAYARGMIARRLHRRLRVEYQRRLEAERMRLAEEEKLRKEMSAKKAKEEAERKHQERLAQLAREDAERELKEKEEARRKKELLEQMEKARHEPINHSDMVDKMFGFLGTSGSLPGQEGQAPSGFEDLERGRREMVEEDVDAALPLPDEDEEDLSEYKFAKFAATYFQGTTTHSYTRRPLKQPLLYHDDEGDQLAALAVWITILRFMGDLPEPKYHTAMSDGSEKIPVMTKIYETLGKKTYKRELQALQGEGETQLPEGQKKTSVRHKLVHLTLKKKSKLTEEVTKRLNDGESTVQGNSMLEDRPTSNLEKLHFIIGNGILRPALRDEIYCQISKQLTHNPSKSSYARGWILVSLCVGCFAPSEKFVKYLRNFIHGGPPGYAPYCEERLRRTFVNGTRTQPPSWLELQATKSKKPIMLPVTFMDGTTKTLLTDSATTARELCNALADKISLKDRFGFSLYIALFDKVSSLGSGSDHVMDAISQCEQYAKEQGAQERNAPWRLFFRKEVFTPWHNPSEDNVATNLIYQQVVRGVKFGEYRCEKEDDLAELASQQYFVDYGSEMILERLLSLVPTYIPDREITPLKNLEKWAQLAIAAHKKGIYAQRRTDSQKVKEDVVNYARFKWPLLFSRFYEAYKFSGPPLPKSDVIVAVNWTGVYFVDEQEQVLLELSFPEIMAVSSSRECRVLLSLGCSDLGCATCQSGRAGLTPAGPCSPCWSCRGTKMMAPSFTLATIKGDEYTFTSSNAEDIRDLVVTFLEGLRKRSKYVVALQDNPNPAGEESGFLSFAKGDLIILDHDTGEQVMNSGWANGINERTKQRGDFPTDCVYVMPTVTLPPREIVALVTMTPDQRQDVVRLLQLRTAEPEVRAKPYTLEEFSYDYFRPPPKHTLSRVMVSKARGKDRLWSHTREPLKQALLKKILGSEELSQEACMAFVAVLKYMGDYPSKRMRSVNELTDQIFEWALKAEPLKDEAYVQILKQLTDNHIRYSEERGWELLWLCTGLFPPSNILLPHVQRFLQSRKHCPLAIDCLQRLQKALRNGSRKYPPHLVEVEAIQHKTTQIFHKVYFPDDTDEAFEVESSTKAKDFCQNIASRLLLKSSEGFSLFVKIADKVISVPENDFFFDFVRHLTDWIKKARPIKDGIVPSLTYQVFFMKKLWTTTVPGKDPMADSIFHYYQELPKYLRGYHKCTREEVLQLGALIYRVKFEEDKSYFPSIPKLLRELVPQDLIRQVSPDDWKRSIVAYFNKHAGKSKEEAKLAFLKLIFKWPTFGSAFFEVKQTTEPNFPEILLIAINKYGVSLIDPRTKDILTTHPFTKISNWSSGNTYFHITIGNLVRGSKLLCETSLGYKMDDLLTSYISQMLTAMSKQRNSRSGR
UniProt P97304, whole entry: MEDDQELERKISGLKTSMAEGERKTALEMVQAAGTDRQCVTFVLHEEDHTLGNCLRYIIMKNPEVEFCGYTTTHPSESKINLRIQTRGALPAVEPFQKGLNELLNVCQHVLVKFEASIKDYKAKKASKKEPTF
UniProt P70195: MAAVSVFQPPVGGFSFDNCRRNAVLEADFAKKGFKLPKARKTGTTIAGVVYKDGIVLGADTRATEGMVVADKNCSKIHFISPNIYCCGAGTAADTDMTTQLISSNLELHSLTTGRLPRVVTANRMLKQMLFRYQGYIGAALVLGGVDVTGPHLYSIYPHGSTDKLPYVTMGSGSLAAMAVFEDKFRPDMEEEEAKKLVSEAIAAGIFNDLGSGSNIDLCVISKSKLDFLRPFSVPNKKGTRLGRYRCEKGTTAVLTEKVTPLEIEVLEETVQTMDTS
UniProt P70399: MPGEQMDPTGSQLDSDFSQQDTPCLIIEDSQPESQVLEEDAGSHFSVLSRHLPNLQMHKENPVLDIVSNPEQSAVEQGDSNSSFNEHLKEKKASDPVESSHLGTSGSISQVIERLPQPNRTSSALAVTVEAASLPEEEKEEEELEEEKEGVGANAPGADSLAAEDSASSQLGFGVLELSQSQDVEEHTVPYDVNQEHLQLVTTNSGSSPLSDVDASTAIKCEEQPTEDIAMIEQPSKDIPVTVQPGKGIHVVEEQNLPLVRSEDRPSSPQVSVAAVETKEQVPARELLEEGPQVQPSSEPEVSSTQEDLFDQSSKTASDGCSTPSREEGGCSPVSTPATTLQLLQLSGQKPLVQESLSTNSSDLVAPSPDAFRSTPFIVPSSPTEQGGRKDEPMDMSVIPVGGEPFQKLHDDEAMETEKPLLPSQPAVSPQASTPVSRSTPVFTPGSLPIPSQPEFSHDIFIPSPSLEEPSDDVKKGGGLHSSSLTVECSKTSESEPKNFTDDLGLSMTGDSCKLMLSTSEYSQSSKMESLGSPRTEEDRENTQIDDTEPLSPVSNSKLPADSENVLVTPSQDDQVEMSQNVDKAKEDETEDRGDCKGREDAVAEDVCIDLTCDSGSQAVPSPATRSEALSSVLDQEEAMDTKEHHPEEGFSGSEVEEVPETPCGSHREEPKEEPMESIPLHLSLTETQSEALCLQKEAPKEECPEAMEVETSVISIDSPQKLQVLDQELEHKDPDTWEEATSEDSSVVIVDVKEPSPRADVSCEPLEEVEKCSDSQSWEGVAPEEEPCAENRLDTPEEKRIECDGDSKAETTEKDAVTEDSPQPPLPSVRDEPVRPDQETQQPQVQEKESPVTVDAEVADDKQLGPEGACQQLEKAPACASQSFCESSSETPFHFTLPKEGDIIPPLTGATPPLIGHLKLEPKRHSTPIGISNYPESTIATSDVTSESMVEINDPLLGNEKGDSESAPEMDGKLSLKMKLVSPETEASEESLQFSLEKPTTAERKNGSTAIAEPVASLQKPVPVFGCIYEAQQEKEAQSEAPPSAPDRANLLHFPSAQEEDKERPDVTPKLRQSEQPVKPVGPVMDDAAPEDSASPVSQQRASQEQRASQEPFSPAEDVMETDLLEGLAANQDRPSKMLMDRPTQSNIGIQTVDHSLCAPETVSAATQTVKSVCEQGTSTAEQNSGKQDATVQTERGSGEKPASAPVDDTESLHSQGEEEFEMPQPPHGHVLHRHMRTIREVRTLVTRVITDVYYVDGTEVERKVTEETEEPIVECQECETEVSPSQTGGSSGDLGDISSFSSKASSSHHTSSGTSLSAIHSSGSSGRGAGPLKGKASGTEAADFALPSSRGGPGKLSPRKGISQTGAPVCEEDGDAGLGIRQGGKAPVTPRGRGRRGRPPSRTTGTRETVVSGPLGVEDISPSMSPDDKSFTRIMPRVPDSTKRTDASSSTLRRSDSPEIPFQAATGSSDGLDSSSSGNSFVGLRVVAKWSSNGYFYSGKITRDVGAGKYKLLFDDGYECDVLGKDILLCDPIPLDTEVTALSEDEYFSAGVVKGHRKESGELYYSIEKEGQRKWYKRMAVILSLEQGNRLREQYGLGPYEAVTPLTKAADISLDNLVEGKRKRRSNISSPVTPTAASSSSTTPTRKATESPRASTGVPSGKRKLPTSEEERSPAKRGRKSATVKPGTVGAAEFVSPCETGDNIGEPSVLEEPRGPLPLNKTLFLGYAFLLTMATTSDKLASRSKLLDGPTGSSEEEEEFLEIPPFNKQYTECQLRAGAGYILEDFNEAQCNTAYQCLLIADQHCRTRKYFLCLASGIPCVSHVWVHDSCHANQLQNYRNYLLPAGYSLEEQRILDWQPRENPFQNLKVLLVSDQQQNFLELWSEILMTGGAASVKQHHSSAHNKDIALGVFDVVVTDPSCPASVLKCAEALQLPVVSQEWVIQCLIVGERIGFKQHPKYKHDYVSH
UniProt P97772: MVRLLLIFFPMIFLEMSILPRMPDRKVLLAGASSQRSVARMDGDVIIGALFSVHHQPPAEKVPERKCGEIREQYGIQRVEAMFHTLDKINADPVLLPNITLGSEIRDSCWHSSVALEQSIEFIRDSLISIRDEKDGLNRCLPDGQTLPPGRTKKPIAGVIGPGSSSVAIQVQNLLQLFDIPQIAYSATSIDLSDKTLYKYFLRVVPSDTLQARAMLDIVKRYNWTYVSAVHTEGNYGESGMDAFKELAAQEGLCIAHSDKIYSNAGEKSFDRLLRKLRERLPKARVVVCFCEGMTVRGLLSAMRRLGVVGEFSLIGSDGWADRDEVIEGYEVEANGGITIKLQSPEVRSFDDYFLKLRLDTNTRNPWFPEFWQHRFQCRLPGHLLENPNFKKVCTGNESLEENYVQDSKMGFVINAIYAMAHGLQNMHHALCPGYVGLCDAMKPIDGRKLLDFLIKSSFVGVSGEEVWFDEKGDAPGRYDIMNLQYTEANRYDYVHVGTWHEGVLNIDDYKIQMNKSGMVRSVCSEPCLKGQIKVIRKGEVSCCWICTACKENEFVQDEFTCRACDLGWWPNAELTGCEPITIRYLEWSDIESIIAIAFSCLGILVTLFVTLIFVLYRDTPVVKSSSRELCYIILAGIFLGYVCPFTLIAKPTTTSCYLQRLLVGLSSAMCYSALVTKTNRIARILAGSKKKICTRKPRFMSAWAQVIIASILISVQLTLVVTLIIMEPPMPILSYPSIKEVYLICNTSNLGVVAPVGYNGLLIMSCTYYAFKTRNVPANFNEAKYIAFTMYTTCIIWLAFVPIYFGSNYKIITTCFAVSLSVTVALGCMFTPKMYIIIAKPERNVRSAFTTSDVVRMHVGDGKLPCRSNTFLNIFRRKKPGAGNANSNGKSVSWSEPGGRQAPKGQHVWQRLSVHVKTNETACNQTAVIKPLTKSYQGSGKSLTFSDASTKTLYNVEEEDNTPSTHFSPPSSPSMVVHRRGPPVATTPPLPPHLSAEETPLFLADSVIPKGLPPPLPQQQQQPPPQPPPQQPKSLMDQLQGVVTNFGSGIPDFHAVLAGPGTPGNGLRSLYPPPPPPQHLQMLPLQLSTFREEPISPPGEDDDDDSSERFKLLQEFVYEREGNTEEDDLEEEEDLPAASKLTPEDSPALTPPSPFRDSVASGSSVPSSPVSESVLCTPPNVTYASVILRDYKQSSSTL
UniProt Q02257: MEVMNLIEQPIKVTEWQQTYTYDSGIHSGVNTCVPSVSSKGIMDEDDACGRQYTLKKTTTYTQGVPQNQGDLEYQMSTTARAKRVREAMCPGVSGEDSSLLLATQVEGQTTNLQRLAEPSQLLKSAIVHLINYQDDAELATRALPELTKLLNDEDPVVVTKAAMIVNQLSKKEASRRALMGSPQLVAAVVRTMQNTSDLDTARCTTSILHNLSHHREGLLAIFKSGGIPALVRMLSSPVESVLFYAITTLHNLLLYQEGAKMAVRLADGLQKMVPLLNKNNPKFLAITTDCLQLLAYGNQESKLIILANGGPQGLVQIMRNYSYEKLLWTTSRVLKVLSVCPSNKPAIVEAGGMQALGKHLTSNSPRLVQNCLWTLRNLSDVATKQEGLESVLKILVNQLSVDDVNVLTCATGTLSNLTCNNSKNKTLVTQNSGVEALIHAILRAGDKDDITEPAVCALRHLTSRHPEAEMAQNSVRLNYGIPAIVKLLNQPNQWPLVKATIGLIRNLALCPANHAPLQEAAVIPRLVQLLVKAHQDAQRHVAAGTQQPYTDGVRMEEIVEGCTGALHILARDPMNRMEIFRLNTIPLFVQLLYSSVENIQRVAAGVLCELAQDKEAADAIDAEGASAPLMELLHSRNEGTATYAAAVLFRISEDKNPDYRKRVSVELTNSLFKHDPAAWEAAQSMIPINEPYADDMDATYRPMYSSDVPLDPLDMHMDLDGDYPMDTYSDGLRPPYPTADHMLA

The other results are listed elsewhere or left out. Most entries show no effect beyond the scatter of the controls.

Compound in this assay: CN[C@@H]1C[C@H]2O[C@@](C)([C@@H]1OC)n1c3ccccc3c3c4c(c5c6ccccc6n2c5c31)C(=O)NC4 [staurosporine]
Put plainly: log2 fold change of tryptic peptide abundance, ligand vs vehicle (limited proteolysis) (log2 ratio); higher = more trypsin-susceptible (destabilized). Particulars: ligand concentration: 20 uM; sample: mouse liver crude lysate; replicate design: treated separately.
As for “UniProt P97479 (peptide sequence: AEPLKDEAYVQILK, peptide start residue: 1806)”, the log2 fold change was -0.412.

For the target “UniProt P97304 (peptide sequence: TSMAEGER, peptide start residue: 16)”, the log2 fold change is -0.341.

As for “UniProt P70195 (peptide sequence: GTTAVLTEK, peptide start residue: 250)”, the log2 fold change is -0.237.

For “UniProt P97762 (peptide sequence: HDAQQLQQLK, peptide start residue: 29)”, the log2 fold change is -0.245.

With “UniProt P83093 (peptide sequence: KAEKEFELR, peptide start residue: 334)”, the log2 fold change turned out to be 0.556.

In the case of “UniProt P97499 (peptide sequence: ASPFPSNTTLMK, peptide start residue: 590)”, the log2 fold change turned out to be 0.542.

For the target “UniProt P70399 (peptide sequence: AADISLDNLVEGK, peptide start residue: 1611)”, the log2 fold change was 0.266.

On to “UniProt P97772 (peptide sequence: KLLDFLIK, peptide start residue: 449)”, for which the log2 fold change worked out at 0.829.

On to “UniProt P70194 (peptide sequence: LGALQEAVAAQKQEQK, peptide start residue: 388)”, for which the log2 fold change came out at 0.213.

“UniProt Q01405 (peptide sequence: HLLQAPVDDAQEILHSR, peptide start residue: 683)”: the log2 fold change was determined as 0.205.

Consider “UniProt P98086 (peptide sequence: RGDEVWIEKDPAK, peptide start residue: 211)”, for which the log2 fold change was -0.221.

On to “UniProt P97434 (peptide sequence: FFILYEHGLLR, peptide start residue: 73)”, for which the log2 fold change is -0.757.

Consider “UniProt P70279 (peptide sequence: QQVAEAEKKEEPVEVTPK, peptide start residue: 164)”, for which the log2 fold change is -0.276.

Take “UniProt Q02526 (peptide sequence: KKPYECGECGR, peptide start residue: 84)”: the log2 fold change was -0.00875.

“UniProt Q00422 (peptide sequence: YYYDGDMICKVQGK, peptide start residue: 380)”: the log2 fold change was -0.545.

Regarding “UniProt Q00558 (peptide sequence: AVGQPAAAAGHFQR, peptide start residue: 154)”, the log2 fold change was -0.641.

For the target “UniProt P70191 (peptide sequence: KFEKELK, peptide start residue: 287)”, the log2 fold change is -0.194.

For the target “UniProt P70403 (peptide sequence: LDPFSSFSKR, peptide start residue: 579)”, the log2 fold change was determined as 0.332.

As to “UniProt P70302 (peptide sequence: QALSEVTAALR, peptide start residue: 414)”, the log2 fold change is -0.375.

Take “UniProt P97427 (peptide sequence: IFNLYPR, peptide start residue: 391)”: the log2 fold change is -0.164.

Turning to “UniProt P97501 (peptide sequence: NAILTQWDR, peptide start residue: 483)”, the log2 fold change is -0.205.

As to “UniProt P97324 (peptide sequence: EMVQNLMVLR, peptide start residue: 206)”, the log2 fold change came to 0.509.

On to “UniProt P97432 (peptide sequence: SLTLDAAPDHNPPCR, peptide start residue: 657)”, for which the log2 fold change is -0.484.

As to “UniProt P70445 (peptide sequence: KFLLDRR, peptide start residue: 57)”, the log2 fold change was 0.286.

“UniProt P97302 (peptide sequence: FSFSEQK, peptide start residue: 157)”: the log2 fold change was found to be 0.223.

As for “UniProt Q00560 (peptide sequence: SYLPQTVR, peptide start residue: 903)”, the log2 fold change was -0.111.

As to “UniProt P97363 (peptide sequence: PEPGGCCCR, peptide start residue: 3)”, the log2 fold change was found to be 0.027.

For “UniProt P70339 (peptide sequence: LLRPTGSAETGNPAPPGAVR, peptide start residue: 89)”, the log2 fold change is -0.36.

With “UniProt P97819 (peptide sequence: GEHGNTPLHLAMSK, peptide start residue: 347)”, the log2 fold change came to 0.346.

For the target “UniProt P99028 (peptide sequence: EHCEQLEK, peptide start residue: 33)”, the log2 fold change was -0.117.

In the case of “UniProt P70426 (peptide sequence: RTDDTPVVLVGNK, peptide start residue: 123)”, the log2 fold change was found to be 0.482.

Regarding “UniProt P97366 (peptide sequence: NKEEVMAVR, peptide start residue: 643)”, the log2 fold change was -0.231.

With “UniProt P97452 (peptide sequence: KLNFLPQKFPSLR, peptide start residue: 325)”, the log2 fold change was -0.148.

As for “UniProt Q02257 (peptide sequence: QEGLESVLK, peptide start residue: 386)”, the log2 fold change is -0.757.

With “UniProt P97931 (peptide sequence: KGSVIDRK, peptide start residue: 254)”, the log2 fold change is -0.14.

On to “UniProt P70670 (peptide sequence: NILFVITKPDVYK, peptide start residue: 2073)”, for which the log2 fold change was -0.0842.
